The values below come from the GenesisPotency data set.

Screen size: about 220,000 compounds; about 16,000 (7.3%) were called active. Another 25% or so got no clear call; they are omitted. The call rests on the fitted dose curve; in most records, active means well fitted inhibition curve with a large enough effect (not every such curve was filed as active); inconclusive means small, poorly fitted or top-dose-only effect, or another doubt; inactive means no such curve, though single readings can be large or run the other way. Some of the results follow.

The assay deals with T1, Aldehyde dehydrogenase 1A1, Homo sapiens (UniProt P00352).
T1 sequence (whole entry): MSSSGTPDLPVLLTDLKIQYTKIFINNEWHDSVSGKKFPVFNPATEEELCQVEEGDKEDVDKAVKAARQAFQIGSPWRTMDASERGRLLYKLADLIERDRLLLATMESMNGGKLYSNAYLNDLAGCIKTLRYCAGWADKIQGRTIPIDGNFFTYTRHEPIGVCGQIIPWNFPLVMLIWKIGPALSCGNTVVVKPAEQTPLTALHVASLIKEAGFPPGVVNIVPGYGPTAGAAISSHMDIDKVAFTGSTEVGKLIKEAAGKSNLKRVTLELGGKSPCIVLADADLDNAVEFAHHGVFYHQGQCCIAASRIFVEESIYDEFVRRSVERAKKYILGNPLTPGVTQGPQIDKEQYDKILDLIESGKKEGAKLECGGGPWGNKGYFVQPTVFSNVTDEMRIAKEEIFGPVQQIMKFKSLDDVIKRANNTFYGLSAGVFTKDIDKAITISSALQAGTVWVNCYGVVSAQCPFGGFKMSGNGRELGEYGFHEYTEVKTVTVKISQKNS
Nature of the assay: qHTS Assay for Inhibitors of Aldehyde Dehydrogenase 1 (ALDH1A1). A general note: Quantitative high-throughput screening tests each substance at several concentrations.
As to `CN[C@@H](C)CCC=C(C)C.CN[C@@H](C)CCC=C(C)C.O=C(O)[C@@H](O)[C@@H](O)[C@@H](O)[C@@H](O)C(=O)O`, the call was inactive.
